These are yes or no findings as the source states them, for the method shown. In cells and extracts the contact can be indirect. These calls come from enrichment with a bait or labelling near it, and not all partners need be listed. For part of these data: Where a sequence is shown, tags or fusion partners need not be part of it.
T1: PF3D7_1353100-GFP (Plasmodium falciparum 3D7) (UniProt Q8IDG9)
T1 sequence: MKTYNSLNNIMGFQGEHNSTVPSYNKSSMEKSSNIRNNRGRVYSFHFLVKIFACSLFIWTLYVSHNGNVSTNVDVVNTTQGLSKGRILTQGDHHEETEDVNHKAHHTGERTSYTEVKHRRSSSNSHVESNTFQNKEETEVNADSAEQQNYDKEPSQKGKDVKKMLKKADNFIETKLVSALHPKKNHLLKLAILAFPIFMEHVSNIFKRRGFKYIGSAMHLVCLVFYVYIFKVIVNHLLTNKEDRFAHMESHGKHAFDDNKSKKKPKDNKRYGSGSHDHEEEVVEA

Sequences of proteins named here, by UniProt entry; tags and fusion partners are left off. A change or cut given only in a name is not applied to a line headed by its entry.
UniProt Q6V0W7: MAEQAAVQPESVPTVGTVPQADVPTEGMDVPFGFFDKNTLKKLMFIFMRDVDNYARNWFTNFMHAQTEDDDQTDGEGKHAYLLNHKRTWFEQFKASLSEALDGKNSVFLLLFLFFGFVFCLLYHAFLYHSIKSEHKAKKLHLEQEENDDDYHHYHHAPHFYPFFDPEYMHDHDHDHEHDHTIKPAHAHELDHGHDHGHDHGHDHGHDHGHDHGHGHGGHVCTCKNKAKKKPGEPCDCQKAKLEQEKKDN
UniProt Q8I2D9: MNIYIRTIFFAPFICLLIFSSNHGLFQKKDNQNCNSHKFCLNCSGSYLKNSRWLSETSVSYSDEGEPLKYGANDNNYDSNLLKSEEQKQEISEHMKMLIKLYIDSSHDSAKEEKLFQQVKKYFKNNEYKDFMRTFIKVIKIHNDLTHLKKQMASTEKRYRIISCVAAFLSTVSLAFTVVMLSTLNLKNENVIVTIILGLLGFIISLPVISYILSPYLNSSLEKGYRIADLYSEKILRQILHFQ
UniProt Q8IEJ0: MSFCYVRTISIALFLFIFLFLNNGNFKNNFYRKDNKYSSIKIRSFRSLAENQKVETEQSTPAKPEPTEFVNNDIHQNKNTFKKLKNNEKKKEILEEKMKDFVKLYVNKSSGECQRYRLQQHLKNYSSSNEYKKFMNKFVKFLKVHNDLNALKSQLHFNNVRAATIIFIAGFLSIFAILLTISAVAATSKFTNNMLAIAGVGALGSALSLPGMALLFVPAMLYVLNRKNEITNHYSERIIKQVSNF

B1: PF3D7_1002000 (protein, UniProt Q8IK16 1-469)
chain: MFICIYFFYNNIVIESTPINVIIKKKKKMTNLRYGNTFNFICNKYDEVIQHGCINLDNMHKNNKKGNKKKYINIFPIMKVLVICLLLSLVNKSNDNTYNEDIFQKDKENCGGLRYKRLLAEPIFGFDVMYDLFKDNFLEQIGYNDAQKNELKVSMKSFFQSSNSQEYTYSRREDNIHSISKSNVTNVKSVKFEEPQDEKNLITIEEIKADNNDSKEKKNEITNINVDEKKDLESVISSEEEKTPTSNNIRKKRKTKRSHKNKDSNTSYDNIELNKILKDDNIEVNKTLKEDNIEVNNTLEEDNIEVNNTLKEDNIEVEKLIDENRELIKKESIYKNKLKEDNIEVEKLIDENRELIKKESIYKNKLKEDNIEVEDLIDENRKLIKKESIYKNKLEEEPVEKGIKRKNYLFLILEKAKEIPPGVIVGLFSIFYVALGENRSSLILLIVIFILTVHTYLEVKRICRFLNID
B2: PF3D7_0702500 (protein, UniProt Q8IC42 1-253)
chain: MAYPLLEDDLRSIRVAFGTCPGNSTMQFGERFWQGFFFGVIIFFVLSKYIRSYKKRKGMRILKSSSVTKGRLYRGTVFDEDDNVDGHHKKTKAHGLFEEIEKRNGFDLNDDTTNSNNLGEGTHSAVHNLDGQKESQLYKNNSDGSTENHLSGSNSDGRNSSQHSVGSHSVSSQEHKKEHSTHDLPAGRNYSLGNLSTGTTSQGSTSSRHYSLGGQPSSSGRSFSGSKYNTSNLASSSTTESSVSGLNTNEAHV

Tests used:
Test in all cases: affinity purification with mass spectrometry; GFP-tagged bait captured on GFP-Trap agarose beads from infected RBCs solubilised in IP buffer (1% Triton X-100, 150 mM NaCl, 50 mM Tris, 8 mM EDTA), precleared with protein A agarose, 16 h at 4°C, 5 washes; eluate digested with trypsin, LC-MS/MS (Q Exactive)
[1] = target: GFP-tagged membrane-associated histidine-rich protein 1 (MAHRP1) (Plasmodium falciparum 3D7) (UniProt Q6V0W7)
[2] = target: GFP-tagged GEXP10/CX3CL1-binding protein 1 (CBP1) (Plasmodium falciparum 3D7) (UniProt Q8I2D9)
[3] = target: T1, PF3D7_1353100-GFP (Plasmodium falciparum 3D7)
[4] = target: GFP-tagged gametocyte exported protein 7 (GEXP07)/CX3CL1-binding protein 2 (CBP2) (Plasmodium falciparum 3D7) (UniProt Q8IEJ0)
[5] = target: GFP-tagged PfEMP1 trafficking protein 6 (PTP6) (Plasmodium falciparum 3D7)

Molecule	binding [1]	binding [2]	binding [4]	binding [5]	further results
gametocyte exported protein 7 (GEXP07)/CX3CL1-binding protein 2 (CBP2) (from UniProt Q8IEJ0)	binds	binds			
membrane-associated histidine-rich protein 2 (MAHRP2)					binding [3]: binds
GEXP10/CX3CL1-binding protein 1 (CBP1) (from UniProt Q8I2D9)	binds		binds		
membrane-associated histidine-rich protein 1 (MAHRP1) (from UniProt Q6V0W7 1-249)		binds	binds		
B1				binds	
B2				binds	

From PMC7078486
